Values of other authors as cited in US10525103B2, “Combined use of a vector encoding a modified receptor and its exogenous agonist in the treatment of seizures” (UCL BUSINESS LTD, priority 2014, dated 2020).
At least one compound was matched to its structure with a doubt left.

Molecular target: T1, hM4Di (Homo sapiens, UniProt P08173, A203G/Y113C)
T1 sequence (P08173 1-479 Y113C/A203G): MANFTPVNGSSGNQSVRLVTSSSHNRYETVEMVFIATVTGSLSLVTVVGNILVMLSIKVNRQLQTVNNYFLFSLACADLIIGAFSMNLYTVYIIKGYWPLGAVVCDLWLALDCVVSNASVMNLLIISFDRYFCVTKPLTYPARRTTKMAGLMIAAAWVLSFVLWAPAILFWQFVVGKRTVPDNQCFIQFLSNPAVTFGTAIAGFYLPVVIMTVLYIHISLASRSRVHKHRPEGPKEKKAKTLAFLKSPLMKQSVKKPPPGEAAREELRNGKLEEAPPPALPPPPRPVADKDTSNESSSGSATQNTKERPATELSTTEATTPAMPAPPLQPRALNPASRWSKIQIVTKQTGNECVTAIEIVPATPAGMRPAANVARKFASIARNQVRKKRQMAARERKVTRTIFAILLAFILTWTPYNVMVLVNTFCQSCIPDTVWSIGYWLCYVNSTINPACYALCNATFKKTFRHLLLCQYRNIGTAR
Design: host or cells: rat (Sprague-Dawley) primary motor cortex neurons transduced in vivo with AAV5, Camk2a promoter
Conditions: endogenous agonist of the parent receptor; cited from earlier work

For `CC(=O)OCC[N+](C)(C)C` [acetylcholine], the “sensitivity of hM4Di to the ligand” value is given as “relatively insensitive”.
